# Patent publication US7393944
# Target: T1, T-bet (Mus musculus) (UniProt Q9JKD8)
# T1 sequence: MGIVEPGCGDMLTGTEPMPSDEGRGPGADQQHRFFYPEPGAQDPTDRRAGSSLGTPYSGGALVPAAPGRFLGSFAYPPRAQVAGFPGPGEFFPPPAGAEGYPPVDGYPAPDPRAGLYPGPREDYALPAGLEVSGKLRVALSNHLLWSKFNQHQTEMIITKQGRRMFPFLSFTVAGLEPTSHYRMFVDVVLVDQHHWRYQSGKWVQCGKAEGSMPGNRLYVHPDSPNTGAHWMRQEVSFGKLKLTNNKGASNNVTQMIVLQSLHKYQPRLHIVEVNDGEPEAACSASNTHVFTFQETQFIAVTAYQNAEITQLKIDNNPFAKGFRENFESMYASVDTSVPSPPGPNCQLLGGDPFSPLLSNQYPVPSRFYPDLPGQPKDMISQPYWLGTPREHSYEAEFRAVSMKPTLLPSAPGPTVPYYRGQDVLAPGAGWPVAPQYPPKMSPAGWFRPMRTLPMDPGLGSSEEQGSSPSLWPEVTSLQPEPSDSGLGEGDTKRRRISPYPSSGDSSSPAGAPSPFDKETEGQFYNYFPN
# Assay: activity in cells
# Settings: transactivation in Jurkat, increased by PMA/ionomycin; exact multimer sequence not given; protein in cells; protein details: pCDNA expression in Jurkat or …; only the site is given
sequence,measurement,value
AATTTCACACCTAGGTGTGAAATT (double strand),activity on this sequence,active

# Protein sequences can lack the tags named with them.
